PubChem BioAssay AID504648 (National Center for Advancing Translational Sciences (NCATS), 2011)
Among all 390,000 compounds or so, about 610 (0.16%) were called active. This list was built around the results that the source calls inconclusive (neither active nor inactive); the mix of calls is not that of the screen. Calls follow the shape of the dose curve; as a rule, active = well fitted inhibition curve with a large enough effect; inconclusive = small, poorly fitted or top-dose-only effect, or effect the other way, or another doubt; inactive = no such curve, though single readings can be large or run the other way. Potencies beside an inconclusive call are fits to weak or partial responses and may not hold up.

Assay: Nrf2 qHTS screen for inhibitors: counterscreen for cytotoxicity
Conditions: A549 ARE-Fluc cells, CellTiter-Fluor viability, 18-24 h; series mostly up to 46 µM
In short: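 Cytotoxicity counterscreen: CellTiter-Fluor fluorescence was measured in A549 ARE_Fluc cells after 18-24 h of compound exposure in a concentration series. The subsequent BugLite luminescent read reports ARE-luciferase activity.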
Potency is read from the fitted curve at half-maximal effect.

Structure (SMILES) | Potency
O=C(C[C@H]1C[C@H](C(=O)N2CCOCC2)[C@@]2(CCC3CCCC3)c3[nH]c4cc(-c5ccco5)ccc4c3CCN2C1=O)NCc1ccco1 | inconclusive: 29.1 µM [falling, single point]
OC1(c2ccc(OC(F)F)cc2)CSC(=Nc2cccnc2)N1Cc1ccco1 (centres undefined) | inactive
Cc1ccc([C@H]2C(C(=O)O)=CC[C@@H](c3cccs3)N2S(=O)(=O)c2ccc(C)cc2)cc1 | inconclusive: 23.1 µM [falling, single point]
Cc1cccc(C(=O)Nc2ccc(C(=O)OCc3cc(=O)n4c(C)csc4n3)cc2)c1 | inconclusive: 29.1 µM [falling, single point]
COc1ccc(C2C(C#N)=C(N)Oc3c2oc(CO)cc3=O)c(OC)c1OC (centres undefined) | inconclusive: 23.1 µM [activator, partial curve]
CCCOc1ccccc1C1C(C(=O)OC)=CN(C(C)C)C=C1C(=O)OC | inconclusive: 20.6 µM [activator, single point]
COc1ccc2c(c1OC)c(=O)n1c3ccc(OC(C)C(=O)NCCCN4CCOCC4)cc3c3ccnc2c31 (centres undefined) | inconclusive: 14.6 µM [falling, partial curve, poor fit]
O=C(Nc1cccc(C(F)(F)F)c1)C1CCN(S(=O)(=O)c2ccc(N3CCCC3=O)cc2)CC1 | inconclusive: 32.6 µM [falling, single point]
CCc1nnc(NC(=O)CCC(=O)N2CCN(c3ccccn3)CC2)s1 | inconclusive: 11.6 µM [activator, partial curve, poor fit]
COc1ccccc1C(=O)Nc1nc2cc3c(cc2s1)OCO3 | inconclusive: 18.4 µM [activator, partial curve, poor fit]
CC(=O)c1ccc(NS(=O)(=O)c2cccc(C(=O)Nc3ccccc3C(=O)O)c2)cc1 | inconclusive: 25.9 µM [falling, single point]
CCOc1cc(/C=C(\C#N)c2nc3ccccc3[nH]2)ccc1OC(C)C(=O)O (centres undefined) | inconclusive: 16.4 µM [falling, partial curve, poor fit]
Cc1nc(Nc2nc(-c3ccccc3)cc(=O)[nH]2)nc2ccccc12 | inconclusive: 16.4 µM [falling, partial curve]
Cc1cc(SCC(=O)c2cccs2)nc2c(C)cccc12 | inconclusive: 8.2 µM [activator, partial curve]
Clc1ccc(C2=NN=C3COc4ccccc4N3C2)cc1 | inconclusive: 23.1 µM [activator, partial curve]
N=c1ccn(Cc2ccc(Cl)c(Cl)c2)cc1 | inconclusive: 3.26 µM [falling, full curve]
Cc1cc(OC(C)C(=O)NCc2ccccn2)c2c(C)cc(=O)oc2c1 (centres undefined) | inconclusive: 10.3 µM [activator, partial curve, poor fit]
Cc1ccc(C)c(NC(=O)c2nc(-c3ccccc3)n(-c3ccccc3)n2)c1 | inconclusive: 29.1 µM [falling, single point]
CC1CN(S(=O)(=O)c2ccc(C(=O)Nc3nc(-c4cc5ccccc5o4)cs3)cc2)CC(C)O1 (centres undefined) | active: 7.31 µM
Cc1cccc(C(=O)Nc2ccc(N3CCC(N4CCCCC4)CC3)c(C(=O)O)c2)c1 | inactive

Structure (SMILES) | Potency
COc1cccc(NC(=O)N(Cc2cn(C)c3ccccc23)C2CCCCCC2)c1 | inconclusive: 20.6 µM [falling, single point]
CCN1CCN(c2cc(C)c3cc(NC(=O)/C=C/c4ccc(C)cc4)ccc3n2)CC1 | inconclusive: 18.4 µM [falling, single point]
O=[N+]([O-])c1ccc(O)c(/C=N\N=C2c3ccccc3-c3ccccc32)c1 | inconclusive: 29.1 µM [falling, single point]
Cc1cc(NC(=O)CSc2nc3ccccc3c(=O)n2C(C)c2ccccc2)no1 (centres undefined) | inconclusive: 14.6 µM [falling, partial curve]
Cc1c(Br)c([N+](=O)[O-])nn1CC(=O)Nc1c(C)n(C)n(-c2ccccc2)c1=O | inactive
COc1ccc(C(=O)Sc2ccc(Cl)cc2)cc1OC | inconclusive: 16.4 µM [falling, single point]
CC(=O)NC1CCC(=O)C=C1c1ccccc1 (centres undefined) | inconclusive: 23.1 µM [falling, partial curve, poor fit]
O=C1/C(=C/c2ccccc2Cl)SC(=S)N1CCCC(=O)N(CCO)c1ccccc1 | inactive
O=C(Nc1ccccc1C(F)(F)F)c1cc(-c2cccc(O)c2)on1 | inconclusive: 1.16 µM [activator, single point]
CCc1[nH]nc(C(=O)NC2CCCc3c2cnn3-c2cc(C)cc(C)c2)c1C (centres undefined) | inconclusive: 20.6 µM [falling, partial curve, poor fit]
O=C(NCc1ccccc1)C1=C[C@@H](c2csc3ccccc23)C[C@@H](OCc2ccc(CO)cc2)O1 | inconclusive: 13 µM [falling, partial curve, poor fit]
COc1ccccc1NS(=O)(=O)c1cccc(C(=O)N2CCN(Cc3ccc4c(c3)OCO4)CC2)c1 | inactive
C[C@@H]1NC(=O)c2cc([N+](=O)[O-])cc(I)c2NCCCC[C@@H](C(N)=O)NC(=O)[C@H](CCC(=O)O)NC1=O | inconclusive: 29.1 µM [falling, single point]
CC(C)Oc1cccc(C(=O)C2CCCN(Cc3cccn3-c3ccccn3)C2)c1 (centres undefined) | inconclusive: 20.6 µM [falling, partial curve, poor fit]
Cc1c(Cl)cccc1NC(=O)Cn1nnc(-c2nc(-c3ccccc3)no2)c1N | inactive
c1ccc2c(c1)[nH]c1c(N3CCN(C4CCCCC4)CC3)ncnc12 | inconclusive: 2.59 µM [activator, partial curve, poor fit]
CCOC(=O)CN(c1ccccn1)S(=O)(=O)c1ccccc1 | inactive
CCOC(=O)N1CCN(c2cc(=O)n(-c3ccc(Br)cc3)c(=O)[nH]2)CC1 | inconclusive: 6.51 µM [activator, single point]
CCOc1ccc(N(CC(=O)NCc2cccc(OC)c2)S(=O)(=O)c2c(C)noc2C)cc1 | inconclusive: 29.1 µM [activator, single point]

As entered above:
Potency with COc1cccc(NC(=O)N(Cc2cn(C)c3ccccc23)C2CCCCCC2)c1 is entered as inconclusive: 20.6 µM [falling, single point]
Potency with O=C(Nc1cccc(C(F)(F)F)c1)C1CCN(S(=O)(=O)c2ccc(N3CCCC3=O)cc2)CC1 is entered as inconclusive: 32.6 µM [falling, single point]
Potency with O=C(NCc1ccccc1)C1=C[C@@H](c2csc3ccccc23)C[C@@H](OCc2ccc(CO)cc2)O1 is entered as inconclusive: 13 µM [falling, partial curve, poor fit]
